Measurements taken from patent publication US11236072B2, “N-[(pyrimidinylamino)propanyl]-,n-[pyridylamino)propanyl]- and n-[(pyrazinylaminol)propanyl]arylcarboxamides” (Boehringer Ingelheim International GmbH, priority 2017, dated 2022).
Structures were worked out from names or drawings and are uncertain.

Sequences of proteins named here, by UniProt entry; tags and fusion partners are left off.
UniProt O43614, whole entry: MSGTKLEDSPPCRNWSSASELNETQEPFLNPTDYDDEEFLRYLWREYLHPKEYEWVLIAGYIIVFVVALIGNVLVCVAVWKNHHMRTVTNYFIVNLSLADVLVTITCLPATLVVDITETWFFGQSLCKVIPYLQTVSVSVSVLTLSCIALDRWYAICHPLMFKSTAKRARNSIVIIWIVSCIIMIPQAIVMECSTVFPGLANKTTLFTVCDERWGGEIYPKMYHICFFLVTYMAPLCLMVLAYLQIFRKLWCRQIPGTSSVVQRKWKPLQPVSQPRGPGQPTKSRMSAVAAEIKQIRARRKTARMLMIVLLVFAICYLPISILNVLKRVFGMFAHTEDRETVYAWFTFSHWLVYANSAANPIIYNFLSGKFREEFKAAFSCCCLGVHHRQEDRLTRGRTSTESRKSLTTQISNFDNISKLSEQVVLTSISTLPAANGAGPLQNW
UniProt O43613, whole entry: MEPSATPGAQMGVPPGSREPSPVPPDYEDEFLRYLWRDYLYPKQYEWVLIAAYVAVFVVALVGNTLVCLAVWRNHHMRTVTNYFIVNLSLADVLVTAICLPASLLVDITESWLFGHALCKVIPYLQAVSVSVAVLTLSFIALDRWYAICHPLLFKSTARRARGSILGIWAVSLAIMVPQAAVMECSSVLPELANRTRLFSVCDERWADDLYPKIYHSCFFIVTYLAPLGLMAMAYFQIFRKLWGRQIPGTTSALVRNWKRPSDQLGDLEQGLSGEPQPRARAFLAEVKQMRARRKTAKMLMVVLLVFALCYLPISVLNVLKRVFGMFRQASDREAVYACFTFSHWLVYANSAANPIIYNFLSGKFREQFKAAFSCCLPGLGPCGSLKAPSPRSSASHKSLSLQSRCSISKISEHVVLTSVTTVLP

Assays:
MDCK-MDR1 cells = conditions: pH 7.4
human orexin 2 receptor = human orexin 2 receptor (Homo sapiens, UniProt O43614)
human Orexin 1 receptor = human Orexin 1 receptor (Homo sapiens, UniProt O43613); test: Assay A: in vitro testing of OX1R potency, OX1R IP1; assay type: cell-based; conditions: for Kb: read-out: OX1R Kb, 50 nM Orexin A concentration

| Compound | efflux ratio (MDCK-MDR1 cells) | Kb (human orexin 2 receptor) [µM] | Kb (human Orexin 1 receptor) [µM] | higher potency (OX1R) (human Orexin 1 receptor; compared to Example 73 in WO2016/034882) |
| --- | --- | --- | --- | --- |
| CCN(C(=O)c1cccc(F)c1-n1nccn1)[C@@H](C)CNc1ncc(Cl)cn1 | < 3 | 0.0263 | 0.00021 | – |
| CCN(C(=O)c1cc(Cl)cnc1-n1nccn1)[C@@H](C)CNc1ncc(C(F)(F)F)cn1 | < 3 | 0.167 | 0.000166 | approximately 2 fold |
| CCN(C(=O)c1cc(F)cc(F)c1-n1nccn1)[C@@H](C)CNc1ncc(Br)cn1 | < 3 | 0.0421 | 0.000184 | – |
